# Test results published in paper PMC10320015, “Structural insights into CED-3 activation” (Life Science Alliance, 2023).
# Results are given in words; binding and its absence hold for the method and conditions named. Binding can be weak; no strength is given.
# Target: T1, CED-4 apoptosome (C. elegans, UniProt P30429 1-549)
# T1 construct: CED-4, C. elegans; also called CED-4b; CED-4c; source: recombinantly expressed, obtained as previously reported (Qi et al, 2010), purified (SEC)
# T1 sequence: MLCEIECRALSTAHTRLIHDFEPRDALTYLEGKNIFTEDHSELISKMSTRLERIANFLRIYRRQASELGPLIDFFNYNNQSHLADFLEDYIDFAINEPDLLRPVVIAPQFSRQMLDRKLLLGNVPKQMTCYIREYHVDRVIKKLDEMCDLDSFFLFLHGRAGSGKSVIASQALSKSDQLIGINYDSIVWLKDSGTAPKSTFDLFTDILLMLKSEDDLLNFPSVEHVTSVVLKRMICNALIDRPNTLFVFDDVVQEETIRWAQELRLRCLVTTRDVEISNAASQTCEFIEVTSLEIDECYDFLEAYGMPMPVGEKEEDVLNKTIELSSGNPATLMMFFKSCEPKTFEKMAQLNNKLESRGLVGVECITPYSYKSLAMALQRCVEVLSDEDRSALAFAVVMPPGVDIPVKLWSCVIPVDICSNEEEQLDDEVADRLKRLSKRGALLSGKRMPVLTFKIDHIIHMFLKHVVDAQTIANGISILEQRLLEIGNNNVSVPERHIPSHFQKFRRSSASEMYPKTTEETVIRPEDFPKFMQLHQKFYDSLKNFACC
# Assay: cryo-EM structure; holoenzyme: ternary complex of CED-4, CED-3 CARD and CED-3 catalytic domain, assembled at 4°C for 1 h, purified by SEC in 20 mM HEPES pH 7.5, 10 mM KCl, 1.5 mM MgCl2, 1 mM EDTA, 1 mM DTT; about 2 uM; both purified
substance,measurement,value
CED-3 catalytic domain (in the holoenzyme) (C. elegans) (domain or fragment),binding,binds
